The text below walks through data of PMC6079100.

The chains behind the UniProt entries cited, without tags or fusion partners.
UniProt O15379: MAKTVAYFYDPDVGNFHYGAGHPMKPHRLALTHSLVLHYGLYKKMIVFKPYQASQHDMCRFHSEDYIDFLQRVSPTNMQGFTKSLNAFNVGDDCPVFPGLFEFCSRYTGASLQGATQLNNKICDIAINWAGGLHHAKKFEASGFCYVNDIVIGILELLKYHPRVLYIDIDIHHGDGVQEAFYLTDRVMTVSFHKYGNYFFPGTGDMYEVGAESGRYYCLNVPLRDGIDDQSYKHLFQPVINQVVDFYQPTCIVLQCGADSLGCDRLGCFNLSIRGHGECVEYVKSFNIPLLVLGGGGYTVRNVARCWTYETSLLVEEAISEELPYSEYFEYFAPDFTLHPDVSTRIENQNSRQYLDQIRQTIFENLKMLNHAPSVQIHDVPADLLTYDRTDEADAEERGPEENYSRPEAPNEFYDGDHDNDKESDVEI
UniProt Q15562: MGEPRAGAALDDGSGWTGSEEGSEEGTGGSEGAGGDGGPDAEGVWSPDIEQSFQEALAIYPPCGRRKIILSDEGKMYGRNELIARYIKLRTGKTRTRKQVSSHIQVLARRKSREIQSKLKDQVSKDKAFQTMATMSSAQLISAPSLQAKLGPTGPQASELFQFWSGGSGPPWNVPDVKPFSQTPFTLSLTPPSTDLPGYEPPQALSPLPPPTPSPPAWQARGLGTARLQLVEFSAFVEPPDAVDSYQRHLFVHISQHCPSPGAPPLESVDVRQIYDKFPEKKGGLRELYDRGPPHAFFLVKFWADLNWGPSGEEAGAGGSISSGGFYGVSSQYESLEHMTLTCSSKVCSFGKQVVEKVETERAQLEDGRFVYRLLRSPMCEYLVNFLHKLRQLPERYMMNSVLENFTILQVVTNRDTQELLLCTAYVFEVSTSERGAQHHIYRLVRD
UniProt Q13547: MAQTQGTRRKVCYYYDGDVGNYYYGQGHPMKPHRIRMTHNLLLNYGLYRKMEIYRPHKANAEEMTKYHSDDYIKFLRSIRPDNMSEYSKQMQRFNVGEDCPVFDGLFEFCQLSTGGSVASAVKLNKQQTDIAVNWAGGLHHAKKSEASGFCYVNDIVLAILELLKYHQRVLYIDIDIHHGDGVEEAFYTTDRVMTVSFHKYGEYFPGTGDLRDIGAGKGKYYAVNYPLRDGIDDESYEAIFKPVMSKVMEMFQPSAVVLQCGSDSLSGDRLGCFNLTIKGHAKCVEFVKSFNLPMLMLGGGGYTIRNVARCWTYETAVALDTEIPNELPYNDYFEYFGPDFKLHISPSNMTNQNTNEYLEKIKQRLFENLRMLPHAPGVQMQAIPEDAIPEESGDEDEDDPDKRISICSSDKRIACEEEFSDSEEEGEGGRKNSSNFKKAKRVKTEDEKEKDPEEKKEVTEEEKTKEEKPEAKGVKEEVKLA

In one assay the target is T1, V5-tagged TRPS1 (UniProt Q9UHF7).
T1 sequence: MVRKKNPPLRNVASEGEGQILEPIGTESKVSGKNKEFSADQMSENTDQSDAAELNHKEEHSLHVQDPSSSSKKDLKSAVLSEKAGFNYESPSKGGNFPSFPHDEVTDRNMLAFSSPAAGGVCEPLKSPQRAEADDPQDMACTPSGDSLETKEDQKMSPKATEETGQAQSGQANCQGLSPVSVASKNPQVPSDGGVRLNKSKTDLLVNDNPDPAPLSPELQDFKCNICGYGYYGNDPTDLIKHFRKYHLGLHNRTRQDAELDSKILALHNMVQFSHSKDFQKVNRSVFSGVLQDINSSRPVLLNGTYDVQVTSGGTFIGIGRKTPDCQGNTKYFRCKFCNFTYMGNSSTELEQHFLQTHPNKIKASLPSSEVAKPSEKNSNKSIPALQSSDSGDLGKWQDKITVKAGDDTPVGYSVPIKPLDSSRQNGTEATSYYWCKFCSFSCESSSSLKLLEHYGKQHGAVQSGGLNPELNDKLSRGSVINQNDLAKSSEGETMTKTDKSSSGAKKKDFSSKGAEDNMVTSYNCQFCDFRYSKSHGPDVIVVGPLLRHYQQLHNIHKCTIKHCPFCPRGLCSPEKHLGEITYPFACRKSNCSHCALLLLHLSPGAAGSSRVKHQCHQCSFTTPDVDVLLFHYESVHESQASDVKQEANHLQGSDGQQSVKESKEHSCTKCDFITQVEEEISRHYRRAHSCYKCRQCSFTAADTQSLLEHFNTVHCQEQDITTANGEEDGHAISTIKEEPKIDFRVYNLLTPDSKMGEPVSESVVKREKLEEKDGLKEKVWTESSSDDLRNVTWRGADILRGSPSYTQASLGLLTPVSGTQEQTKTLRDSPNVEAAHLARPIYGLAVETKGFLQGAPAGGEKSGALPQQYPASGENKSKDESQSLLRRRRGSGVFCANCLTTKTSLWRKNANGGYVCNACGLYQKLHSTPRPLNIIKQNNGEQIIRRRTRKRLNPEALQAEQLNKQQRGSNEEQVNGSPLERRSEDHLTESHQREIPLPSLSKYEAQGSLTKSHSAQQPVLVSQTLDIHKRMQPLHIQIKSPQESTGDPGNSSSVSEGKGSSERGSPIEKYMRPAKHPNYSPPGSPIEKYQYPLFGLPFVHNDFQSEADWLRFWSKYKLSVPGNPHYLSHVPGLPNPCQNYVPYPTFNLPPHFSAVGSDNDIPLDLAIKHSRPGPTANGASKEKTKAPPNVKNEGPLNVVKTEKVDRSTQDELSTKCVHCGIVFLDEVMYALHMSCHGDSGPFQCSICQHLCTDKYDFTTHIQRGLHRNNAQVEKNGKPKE
Description: co-IP; 293T cells expressing V5-TRPS1; HEGN buffer; V5 precipitates eluted with 1 mg/ml V5 peptide; Western blot for endogenous corepressor proteins.

For assay [1], the target named is T2, TRPS1 expressed in 293T cells (exogenous co-immunoprecipitation with GAL4-tagged TEAD proteins) (UniProt Q9UHF7).
T2 sequence: T1 sequence
Description: co-IP; 293T cells co-expressing TRPS1 and GAL4-tagged TEAD proteins; lysis in HEGN buffer (120 mM KCl, 0.2% NP-40); precipitation with a TRPS1 antibody on Dynabeads overnight at 4 °C, IgG as control; Western blot. A general note: Immunoblotting shows a protein as a band on a membrane.

No constants are given. Whether binding was seen depends on the method and setting. Binding seen in cells or lysates may run through a third protein. Some entries that bind do so weakly or less than the wild type. Tags and fused reporters may be left off the sequences shown.

Consider “HDAC3, endogenous in 293T cells (from UniProt O15379 1-428) (enzyme)”, for which, in the assay with V5-tagged TRPS1, the binding result is “binds”.

Take “GAL4-tagged TEAD2 (from UniProt Q15562 1-447)”: in assay [1], the binding result is given as “binds”.

Regarding “CTBP2, endogenous in 293T cells (from UniProt P56545 1-445)”, the binding entry with V5-tagged TRPS1 was “binds”. With “HDAC1, endogenous in 293T cells (from UniProt Q13547 1-482) (enzyme)”, the binding entry in the assay with V5-tagged TRPS1 is “binds”.
